Test results published in publication PMC3817308, “Metal-sensitive and thermostable trypsin from the crevalle jack (Caranx hippos) pyloric caeca: purification and characterization” (Chemistry Central Journal, 2013).

System: T1, trypsin from crevalle jack (Caranx hippos) pyloric caeca
T1 construct: gene trypsin-like enzyme; native, purified from pyloric caeca (heat, ammonium sulfate, Sephadex G-75); mature N-terminus IVGGFECTPHVFAYQ
Assay: residual activity, BApNA hydrolysis at […] nm
Type: biochemical
Details: 1000 µM, 30 min preincubation with 1 mM inhibitor, 4 mM BApNA

Structure (SMILES)	Residual activity ± SD (%) (covalent)	Residual activity ± SD (%)
Cc1ccc(S(=O)(=O)N[C@@H](CCCCN)C(=O)CCl)cc1 [TLCK]	0 ± 0%	
N=C(N)c1ccccc1 [benzamidine]		1.43 ± 0.2%
